{
  "source": "PubChem BioAssay AID2685",
  "about": "(National Center for Advancing Translational Sciences (NCATS), 2010)",
  "note": "In all, about 320,000 compounds went through this assay and about 2,100 (0.66%) were called active. Inconclusive means that the source gave no clear call. Such entries were picked first, then a sample of the others. Calls come from the whole dose curve; as a rule, active = well fitted inhibition curve with a large enough effect in the signal ratio, with a control signal flat (not every such curve was filed as active); inconclusive = small, poorly fitted or top-dose-only effect, or effect the other way, or a change in a side signal; inactive = flat fitted curve, though single readings scatter; the % refers to the signal ratio. Where the call is inconclusive, the potency comes from a doubtful curve fit. % is set by controls: 0 for no effect and ±100 for the full control effect; potency is the fitted concentration of half-maximal effect.",
  "data": [
    {"assay": "qHTS Assay for Lipid Storage Modulators in Drosophila S3 Cells", "conditions": "BODIPY lipid droplet fluorescence, 18-24 h, cells fed with added oleic acid; lipid storage change, negative = inhibition: at 46.1 µM (top of the series) unless noted", "how_it_was_run": "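Laser-scanning cytometry quantifies lipid droplet accumulation (500–530 nm total intensity; droplet/cell object ratio) in oleic acid-fed (400 uM added) Drosophila S3 cells treated with a concentration series. 20 uM Triacsin C defined 100% inhibition.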", "values": [
      {"smiles": "COc1ccc(Nc2oc(COc3ccccc3OC)nc2C#N)cc1", "lipid storage change, negative = inhibition": "inconclusive: 2.82%"},
      {"smiles": "CCCCC(=O)Nc1nc(-c2ccc(S(=O)(=O)N3CCOCC3)cc2)cs1", "Potency": "inconclusive: 8.2 µM [falling, partial curve]"},
      {"smiles": "O=C(NC1=NCCS1)[C@H](Cc1ccccc1)N1C(=O)c2ccccc2C1=O", "Potency": "inconclusive: 0.0052 µM [falling, full curve, poor fit]"},
      {"smiles": "COc1ccc(CNC(=O)CNC(=O)c2c(C)nn(C)c2Cl)cc1", "Potency": "inconclusive: 16.4 µM [falling, single point]"},
      {"smiles": "CCOC(=O)c1nn(-c2ccc(F)cc2)c(=O)c(C#N)c1C", "lipid storage change, negative = inhibition": "inconclusive: 67.8%"},
      {"smiles": "COc1nc2c(s1)C(=O)NCCC2", "lipid storage change, negative = inhibition": "inconclusive: -15.8%"},
      {"smiles": "CC(=O)c1ccc(S(=O)(=O)N2CCN(c3nc(-c4cccnc4)nc4ccccc34)CC2)cc1", "Potency": "inconclusive: 4.61 µM [activator, single point]"},
      {"smiles": "CN(CC(=O)Nc1cccc(F)c1)C(=O)c1ccc(NC2CC2)c([N+](=O)[O-])c1", "Potency": "inconclusive: 1.64 µM [activator, full curve]"},
      {"smiles": "CN(CC(=O)Nc1cccc(F)c1)C(=O)C1CCN(C(=O)c2ccc(Cl)cc2)CC1", "lipid storage change, negative = inhibition": "inconclusive: -62.5%"},
      {"smiles": "O=c1c2c(nc3n1CCS3)c1cc(F)ccc1n2Cc1cc(=O)n2cc(Cl)ccc2n1", "lipid storage change, negative = inhibition": "inconclusive: 12.9%"},
      {"smiles": "COc1ccc(CN2CCN(Cc3cc4ccccc4o3)CC2CCO)cc1C", "note": "(centres undefined)", "lipid storage change, negative = inhibition": "inconclusive: -28.5%"},
      {"smiles": "CCOc1ccccc1C(=O)Nc1ccc(S(=O)(=O)N2CCOCC2)cc1", "Potency": "inconclusive: 2.31 µM [activator, partial curve]"},
      {"smiles": "CCn1c(/C=N/c2nc3ccccc3n2C)nc2ccccc21", "lipid storage change, negative = inhibition": "inconclusive: 26.1%"},
      {"smiles": "O=C(Nc1ccc(Cl)cc1)N1CCc2[nH]c3ccccc3c2C1", "Potency": "inconclusive: 29.1 µM [falling, single point]"},
      {"smiles": "CCOC(=O)CCc1nc2ccccc2[nH]1", "lipid storage change, negative = inhibition": "inconclusive: -33.9%"},
      {"smiles": "c1cncc(-c2nc3cc4ccccc4cc3[nH]2)c1", "lipid storage change, negative = inhibition": "inconclusive: -70.3%"},
      {"smiles": "COc1ccccc1C(=O)NC(=S)Nc1ccc(S(=O)(=O)N2CCN(C)CC2)cc1", "Potency": "inconclusive: 1.3 µM [activator, partial curve]"},
      {"smiles": "Cc1cc(-c2n[nH]c(=S)n2/N=C/c2ccccc2[N+](=O)[O-])n[nH]1", "lipid storage change, negative = inhibition": "inconclusive: -8.75%"},
      {"smiles": "CCCCC(=O)Nc1nc2c(s1)COc1ccccc1-2", "lipid storage change, negative = inhibition": "inconclusive: -23.1%"},
      {"smiles": "O=C(NCc1ccccc1)C(c1c(F)cccc1Cl)N(C(=O)c1csnn1)C1CC1", "note": "(centres undefined)", "lipid storage change, negative = inhibition": "inconclusive: -84.2%"},
      {"smiles": "Nc1nc(C(F)(F)F)c(Br)c(=O)n1N", "lipid storage change, negative = inhibition": "inconclusive: -19.5%"},
      {"smiles": "Cc1cc(=O)oc2cc3c(cc12)OCCO3", "Potency": "inconclusive: 0.82 µM [falling, full curve, poor fit]"},
      {"smiles": "CC(=O)Nc1ccc(CN2CCCC(C(=O)c3cccc(C(F)(F)F)c3)C2)cc1", "note": "(centres undefined)", "lipid storage change, negative = inhibition": "inconclusive: -52.7%"},
      {"smiles": "Nc1ccn(Cc2ccc(F)cc2)n1", "lipid storage change, negative = inhibition": "inconclusive: -2.19%"},
      {"smiles": "Nc1nnc(SCC(=O)OCc2ccccc2)s1", "lipid storage change, negative = inhibition": "inconclusive: -43.9%"},
      {"smiles": "O=C(Nc1cccc2ccccc12)c1cccc(F)c1", "lipid storage change, negative = inhibition": "inactive: 18.6%"},
      {"smiles": "Cc1cc(C)cc(NC(=O)CSc2nc3nc(C)cc(C)c3c(=O)[nH]2)c1", "lipid storage change, negative = inhibition": "inconclusive: -1.93%"},
      {"smiles": "Cc1cc(-c2ccccc2)oc(=O)c1NC(=O)c1ccccc1", "lipid storage change, negative = inhibition": "inconclusive: -19.5%"},
      {"smiles": "COc1ccccc1/C=C/C(=O)N1CCc2cc(OC)c(OC)cc2C1C", "note": "(centres undefined)", "Potency": "inconclusive: 6.51 µM [falling, single point]"},
      {"smiles": "O=C(/C=C/c1c(F)cccc1Cl)Nc1ccc(S(=O)(=O)Nc2ncccn2)cc1", "lipid storage change, negative = inhibition": "inconclusive: 16.4%"},
      {"smiles": "C/C(=N/O)c1no[n+]([O-])c1/C(C)=N\\O", "lipid storage change, negative = inhibition": "inconclusive: 18.5%"},
      {"smiles": "CC(C)Nc1nc(SC(C)C(=O)Nc2ccccc2)nc(N(C)C)n1", "note": "(centres undefined)", "Potency": "active: 8.2 µM"},
      {"smiles": "COc1ccccc1C1=Nn2c(nnc2C2CCCCC2)SC1", "Potency": "inconclusive: 1.46 µM [activator, full curve]"},
      {"smiles": "CC1(C2CC(C(F)(F)F)n3nc(C(=O)O)cc3N2)CC1", "note": "(centres undefined)", "lipid storage change, negative = inhibition": "inconclusive: -6.04%"},
      {"smiles": "Cn1c2ccccc2c2ncn(CCC3=CCCCC3)c(=O)c21", "lipid storage change, negative = inhibition": "inconclusive: 46.9%"},
      {"smiles": "COCCCNC(=O)c1cc2c(=O)n(C)c3ccccc3c2n1C", "Potency": "inconclusive: 6.51 µM [activator, single point]"},
      {"smiles": "NC(=O)C1CCN(CC(O)COCc2ccccc2Cl)CC1", "note": "(centres undefined)", "lipid storage change, negative = inhibition": "inconclusive: 2.53%"},
      {"smiles": "CCOc1ccc(N=Nc2ccc(O)c3ncccc23)cc1", "Potency": "inconclusive: 29.1 µM [activator, single point]"},
      {"smiles": "O=C(C1CCCO1)N1CCN(S(=O)(=O)c2cc(C(F)(F)F)ccc2Cl)CC1", "note": "(centres undefined)", "lipid storage change, negative = inhibition": "inconclusive"},
      {"smiles": "CCCCC(=O)Nc1cnc(NC(=O)c2ccco2)cc1C", "Potency": "inconclusive: 29.1 µM [activator, single point]"},
      {"smiles": "Cc1ccc(NC(=O)Nc2cccs2)cc1", "Potency": "inconclusive: 6.51 µM [activator, single point]"},
      {"smiles": "COc1cc2c(cc1NC(=O)C(c1ccccc1)c1ccccc1)CCCC2", "Potency": "inconclusive: 0.58 µM [activator, full curve, poor fit]"},
      {"smiles": "Cc1ccc(NC(=O)c2sc3nc(C)nc(N4CCN(c5ccccn5)CC4)c3c2C)c(C)c1", "lipid storage change, negative = inhibition": "inconclusive: 19.2% [at 9.22 µM]"},
      {"smiles": "CC(C)(C)n1nnnc1C(c1ccncc1)N1CCN(C2CCCCC2)CC1", "note": "(centres undefined)", "lipid storage change, negative = inhibition": "inconclusive: 0.283%"},
      {"smiles": "Cc1ccc(C)c(NC(=O)NNC(=O)CCc2ccccc2)c1", "Potency": "inconclusive: 1.03 µM [activator, full curve]"},
      {"smiles": "CC(C)Cc1ccc(/C(=N/O)C(=O)O)s1", "Potency": "inconclusive: 29.1 µM [falling, single point]"},
      {"smiles": "O=c1c2ccccc2nc2n1C(CSc1ccc(F)cc1)CS2", "note": "(centres undefined)", "lipid storage change, negative = inhibition": "inconclusive: 25.8% [at 9.22 µM]"},
      {"smiles": "O=C(c1ccc(Cl)c([N+](=O)[O-])c1)N(Cc1cccc(Cl)c1)C1CCS(=O)(=O)C1", "note": "(centres undefined)", "Potency": "inconclusive: 25.9 µM [falling, single point]"},
      {"smiles": "CCc1ccc(C(=O)COC(=O)CNC(=O)c2ccc(Br)o2)cc1", "lipid storage change, negative = inhibition": "inconclusive: -3.35%"}
    ]}
  ]
}
